# Assay results as given in PubChem BioAssay AID485298 (National Center for Advancing Translational Sciences (NCATS), 2010).
# Hit rate of the full screen: of about 320,000 compounds, about 740 (0.23%) were called active. This list was built around the results that the source calls inconclusive (neither active nor inactive); the mix of calls is not that of the screen. Calls follow the shape of the dose curve; as a rule, active = well fitted activation curve with a large enough effect; inconclusive = small, poorly fitted or top-dose-only effect; inactive = no such curve, though single readings can be large or run the other way. A potency beside an inconclusive call is a rough fit, not a confirmed value.
# Assay: qHTS Assay for Small Molecule Inhibitors of Mitochondrial Division or Activators of Mitochondrial Fusion; also: nearly all actives have a fitted effect of over 45% in size
# Details: S. cerevisiae fusion-defective mutant growth rescue, CellTiterGlo 48 h; series mostly up to 46.1 µM
# Outline: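 Growth-rescue viability read-out: after 48 h at the non-permissive 37C in glycerol/ethanol YPEG, yeast mitochondrial fusion mutants are measured by CellTiterGlo luminescence; compounds (23 nl pinned per well) restoring growth score as division inhibitors or fusion activators.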
# Potency is read from the fitted curve at half-maximal effect.
row,Structure (SMILES),Potency
1,Cc1cc(C)n2c(SCC#N)nnc2n1,inactive
2,CC(=O)NC(c1ccc(Cl)cc1Cl)c1ccc2cccnc2c1O (stereo unspecified),inactive
3,O=C1C=C(/C=C/C2C=CC=CC2)C[C@@H](c2ccc(Cl)cc2)C1 (stereo partly specified),"inconclusive: 17.8 µM [activator, single point]"
4,S=C(NCCc1ccccc1)Nc1ccc(Br)cc1,"inconclusive: 35.5 µM [activator, single point]"
5,CCC1CCCCN1C(=S)NC(=O)c1ccc([N+](=O)[O-])cc1 (stereo unspecified),inactive
6,COc1cccc(N/C(N)=N/c2nc(C(F)(F)F)cc(C(F)(F)F)n2)c1,"inconclusive: 3.55 µM [activator, single point]"
7,O=C(c1ccccc1)c1ccc2c(c1)OCCOCCOCCO2,inactive
8,O=C(CCc1nnc2ccc(N3CCC4(CC3)OCCO4)nn12)NCc1ccc(F)cc1,"inconclusive: 3.98 µM [activator, partial curve]"
9,O=C(O)c1cccc(-c2ccc(/C=c3/sc4nc5ccccc5n4c3=O)o2)c1,active: 31.6 µM
10,COc1ccc(C)cc1C1=CC(=O)C[C@H](c2ccc(F)cc2)C1,"inconclusive: 3.16 µM [activator, single point]"
11,COc1ccc(NC(=O)C2C3C=CC4(O3)C2C(=O)N(CCN2CCCCC2)C4C(=O)NC2CCCC(C)C2C)cc1 (stereo unspecified),active: 31.6 µM
12,O=C(/C=C/c1ccccc1)NC(=S)Nc1ccccc1O,inactive
13,CCOc1ccccc1NC(=O)COn1nnc2ccc(Cl)cc21,active: 11.2 µM
14,O=C(CSc1nc2[nH]ncc2c(=O)n1-c1ccccc1Br)NCc1ccccc1Cl,"inconclusive: 35.5 µM [activator, single point]"
15,CCCCNC(=O)c1onc(CSc2ccccc2)c1C(=O)NCCCC,"inconclusive: 22.4 µM [activator, single point]"
16,Cc1ccc(OC(=O)c2cccc([N+](=O)[O-])c2)c(-n2nc3ccccc3n2)c1,inactive
17,CCOc1ccccc1NC(=S)NC(=O)C1CC1,"inconclusive: 11.2 µM [activator, partial curve]"
18,C[C@H](NC(=O)c1[nH]cnc1C(=O)Nc1ccccc1)C(=O)OC(C)(C)C,inactive
19,COc1ccc(-c2[nH]c(-c3ccc(C)cc3)nc2SCC(=O)NC2CCCC2)cc1,"inconclusive: 12.6 µM [activator, partial curve]"
20,COC(=O)CSc1nc(SCc2ccc(C)cc2)nc2c1CCCC2,inactive
21,O=C(Nc1cccc([N+](=O)[O-])c1)c1ccc2ccccc2c1O,"inconclusive: 35.5 µM [activator, single point]"
